Measured values taken from patent publication US20090186839A1, “Model for studying the role of genes in chemoresistance” (Cold Spring Harbor Laboratory, priority 2003, published 2009).
For at least one compound, name, drawing or mass did not settle the structure.

Tests used:
[1] = tested on: Eμ-myc/Akt lymphomas; assay: In vivo chemotherapy of mice bearing Akt lymphomas; parameters: species or system mouse
[2] = tested on: Eμ-myc/ARF−/− control lymphomas; assay: In vivo chemotherapy of mice bearing control (ARF-null) lymphomas; parameters: species or system mouse; conditions: TUNEL, FIG. 8B
[3] = tested on: Eμ-myc/PTEN+/− tumors; assay: In vivo chemotherapy of mice bearing PTEN+/− lymphomas; parameters: species or system mouse; conditions: RAP 4 mg/kg, silvestrol 0.2 mg/kg daily 5 days i.p., listed as RAP
Description: Primary tumors arising in Eμ-myc/PTEN+/− and Ep-myc/PTEN+/− mice were harvested and injected into C57BL/6 (non-transgenic) mice. Upon tumor formation of palpable secondary tumors, mice were treated with a single i.p. administration of drug. The treatment schedule included an injection with either DXR ([…] in 0.9% saline), CTX (300 mg/kg in 0.9% saline), RAP (4 mg/kg in 0.9% H2O with 5% PEG/TWEEN), or a combination thereof (d1: DXR or CTX, d2: DXR or CTX and RAP, d3-5: DXR pr CTX). Mice were then palpated twice weekly for disappearance or recurrence of tumors. Data are presented as Kaplan-Meier plots in FIG. 19, and show the tumor free survival/time to relapse. Time to relapse for mice that were never tumor free was scored as ‘0’ days. […] The bottom panel has an equivalent analysis for treatment with CTX, RAP, and RAP+CTX combination.
Primary tumors arising in PTEN+/−Eμ-Myc mice were harvested and a total of 2×10^6 secondary lymphoma cells were injected into the tail veins of 6-8 week old female C57BL/6 (non-transgenic) mice. […]
Data are presented as Kaplan-Meier plots using the log-rank (Mantel-Cox) test for statistical significance (SigmaStat software) in FIG. 28, and show the tumor free survival/time to relapse. Time to relapse for mice that were never tumor free was scored as ‘0’ days. […]

[4] = tested on: S6-kinase; assay: S6-kinase immunofluorescence after rapamycin in vitro; format: cell-based, mouse; conditions: Eμ-myc/PTEN+/− tumor cells, 10 nM rapamycin, 1 hour
[5] = tested on: Eukaryotic protein synthesis; conditions: Table 1; cited from earlier work
[6] = tested on: Eukaryotic protein synthesis; conditions: Table 1; cited from earlier work; remark: listed apart in the source

SMILES	apoptosis (PARP cleavage, TUNEL) ([1]; Akt lymphomas, 6 hours post-therapy)	mice achieving remissions lasting more than 60 days ([1]; Akt lymphomas, CTX 300 mg/kg, RAP 4 mg/kg x 5 d)	complete remission ([1]; Akt lymphomas, RAP 4 mg/kg i.p. x 5 d, DXR 10 mg/kg i.p.)	whole body GFP imaging of tumors ([1]; Akt-GFP secondary tumors, day 21 post treatment)	anti-tumor activity as a single agent ([1]; rapamycin 4 mg/kg i.p. x 5 d)	effect on drug-induced apoptosis [2]	reversal of DXR resistance / sensitization to DXR [3]	S6-kinase staining [4]	In Vivo Inhibition [5]	In Vitro Inhibition [6]
CO[C@H]1C[C@@H]2CC[C@@H](C)[C@@](O)(O2)C(=O)C(=O)N2CCCC[C@H]2C(=O)O[C@H]([C@H](C)C[C@@H]2CC[C@@H](O)[C@H](OC)C2)CC(=O)[C@H](C)/C=C(\C)[C@@H](O)[C@@H](OC)C(=O)[C@H](C)C[C@H](C)/C=C/C=C/C=C/1C [rapamycin]	only a slight increase in apoptosis	none	rarely achieved complete remissions	sizable tumors at several sites	only modest activity as a single agent	appeared to antagonize drug-induced apoptosis	reverse this drug resistance	marked inhibition of S6-kinase		
CC/C=C\C/C=C\C/C=C\C/C=C\C/C=C\CCCC(=O)O [Eicosapentaenoic Acid]									+	−
O=C(O)C1=CC(=C(c2ccc(O)c(C(=O)O)c2)c2ccc(O)c(C(=O)O)c2)C=CC1=O [Aurintricarboxylic acid]									−	+
